No constants are given. Whether binding was seen depends on the method and setting.

By UniProt entry, the sequences of proteins in these tests, tags left out. Residues count along the entry.
UniProt P19474, residues 287-465: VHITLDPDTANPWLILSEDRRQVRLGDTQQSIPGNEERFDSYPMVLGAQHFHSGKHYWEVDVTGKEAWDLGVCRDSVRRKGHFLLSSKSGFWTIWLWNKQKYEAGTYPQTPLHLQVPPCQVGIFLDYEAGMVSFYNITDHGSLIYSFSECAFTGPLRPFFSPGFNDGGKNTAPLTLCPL

For the test, the target named is TRIM21 PRYSPRY domain, His-tagged (TRIM21his-PS) (human) (UniProt P19474). The experiment in a line: AUC; sedimentation velocity, 50,000 rpm, 20 °C, A230; 5 µM of each protein alone; both purified.

With “TRIM21 PRYSPRY domain, His-tagged (TRIM21his-PS) (from UniProt P19474 287-465) (domain or fragment)”, the binding entry was “no binding (tested: 5 µM)”.

These data come from PMC12647892, “State-selective small molecule degraders that preferentially remove aggregates and oligomers” (Nature Communications, 2025).
